These are yes or no findings as the source states them, for the method shown. In cells and extracts the contact can be indirect. Here binding means that the protein was enriched with, or labelled near, the bait; the list need not be complete. For some of these results: No binding means not detected with the bait. Sequences can lack the tags named with a protein.

Chains of the proteins cited; added tags and fusions are not shown. Lines headed by an entry give the natural chain unless they say otherwise; changes in a name come on top.
UniProt Q8IJ32: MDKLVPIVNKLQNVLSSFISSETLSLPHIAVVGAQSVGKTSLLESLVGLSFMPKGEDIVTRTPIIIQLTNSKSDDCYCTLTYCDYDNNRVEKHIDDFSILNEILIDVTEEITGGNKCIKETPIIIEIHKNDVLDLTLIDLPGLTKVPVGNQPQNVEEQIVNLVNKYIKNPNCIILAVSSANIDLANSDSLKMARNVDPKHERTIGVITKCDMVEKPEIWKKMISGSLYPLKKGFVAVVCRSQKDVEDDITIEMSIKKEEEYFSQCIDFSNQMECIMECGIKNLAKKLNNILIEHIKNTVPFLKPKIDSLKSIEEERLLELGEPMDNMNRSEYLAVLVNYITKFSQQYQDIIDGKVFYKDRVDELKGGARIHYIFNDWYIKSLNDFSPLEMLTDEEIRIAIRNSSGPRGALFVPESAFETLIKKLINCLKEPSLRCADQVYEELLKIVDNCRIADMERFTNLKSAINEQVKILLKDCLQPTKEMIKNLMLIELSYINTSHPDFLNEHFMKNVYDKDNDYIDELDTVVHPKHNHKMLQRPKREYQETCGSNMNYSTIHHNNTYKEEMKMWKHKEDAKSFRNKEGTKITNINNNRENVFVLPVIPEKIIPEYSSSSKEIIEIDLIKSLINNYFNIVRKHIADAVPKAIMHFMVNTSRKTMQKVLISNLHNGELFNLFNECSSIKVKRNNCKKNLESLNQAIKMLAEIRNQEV
UniProt Q8I4X0: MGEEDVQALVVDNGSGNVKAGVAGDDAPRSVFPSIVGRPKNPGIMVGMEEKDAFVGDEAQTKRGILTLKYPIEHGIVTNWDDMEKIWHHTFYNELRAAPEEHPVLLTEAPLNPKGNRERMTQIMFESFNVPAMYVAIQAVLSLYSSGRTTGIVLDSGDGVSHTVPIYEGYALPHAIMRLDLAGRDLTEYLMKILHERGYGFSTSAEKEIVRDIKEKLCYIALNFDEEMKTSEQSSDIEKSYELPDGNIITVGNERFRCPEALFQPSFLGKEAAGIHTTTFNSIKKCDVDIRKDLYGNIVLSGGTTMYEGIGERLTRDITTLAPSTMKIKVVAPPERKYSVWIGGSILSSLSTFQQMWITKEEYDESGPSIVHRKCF
UniProt Q8IB24: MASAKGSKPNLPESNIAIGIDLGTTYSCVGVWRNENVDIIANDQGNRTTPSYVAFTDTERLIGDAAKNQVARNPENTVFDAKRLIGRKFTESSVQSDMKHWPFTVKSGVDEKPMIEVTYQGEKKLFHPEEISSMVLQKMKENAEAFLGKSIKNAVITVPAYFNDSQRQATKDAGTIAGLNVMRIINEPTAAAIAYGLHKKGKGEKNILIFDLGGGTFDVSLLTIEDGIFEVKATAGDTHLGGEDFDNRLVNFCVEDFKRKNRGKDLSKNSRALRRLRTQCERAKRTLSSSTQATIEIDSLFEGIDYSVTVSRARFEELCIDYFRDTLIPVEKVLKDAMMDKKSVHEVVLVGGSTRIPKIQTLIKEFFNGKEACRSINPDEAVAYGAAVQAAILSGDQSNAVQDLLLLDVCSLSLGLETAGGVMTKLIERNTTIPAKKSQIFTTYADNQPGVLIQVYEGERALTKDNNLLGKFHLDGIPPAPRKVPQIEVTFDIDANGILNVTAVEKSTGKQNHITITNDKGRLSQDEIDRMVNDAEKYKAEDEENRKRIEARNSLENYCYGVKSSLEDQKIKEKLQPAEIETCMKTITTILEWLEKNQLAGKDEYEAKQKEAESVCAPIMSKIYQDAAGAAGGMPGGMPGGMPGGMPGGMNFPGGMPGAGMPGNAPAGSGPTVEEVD

One assay has as its target T1, PfAnchor-BirA-HA (Plasmodium falciparum) (UniProt C6KSX8).
T1 sequence: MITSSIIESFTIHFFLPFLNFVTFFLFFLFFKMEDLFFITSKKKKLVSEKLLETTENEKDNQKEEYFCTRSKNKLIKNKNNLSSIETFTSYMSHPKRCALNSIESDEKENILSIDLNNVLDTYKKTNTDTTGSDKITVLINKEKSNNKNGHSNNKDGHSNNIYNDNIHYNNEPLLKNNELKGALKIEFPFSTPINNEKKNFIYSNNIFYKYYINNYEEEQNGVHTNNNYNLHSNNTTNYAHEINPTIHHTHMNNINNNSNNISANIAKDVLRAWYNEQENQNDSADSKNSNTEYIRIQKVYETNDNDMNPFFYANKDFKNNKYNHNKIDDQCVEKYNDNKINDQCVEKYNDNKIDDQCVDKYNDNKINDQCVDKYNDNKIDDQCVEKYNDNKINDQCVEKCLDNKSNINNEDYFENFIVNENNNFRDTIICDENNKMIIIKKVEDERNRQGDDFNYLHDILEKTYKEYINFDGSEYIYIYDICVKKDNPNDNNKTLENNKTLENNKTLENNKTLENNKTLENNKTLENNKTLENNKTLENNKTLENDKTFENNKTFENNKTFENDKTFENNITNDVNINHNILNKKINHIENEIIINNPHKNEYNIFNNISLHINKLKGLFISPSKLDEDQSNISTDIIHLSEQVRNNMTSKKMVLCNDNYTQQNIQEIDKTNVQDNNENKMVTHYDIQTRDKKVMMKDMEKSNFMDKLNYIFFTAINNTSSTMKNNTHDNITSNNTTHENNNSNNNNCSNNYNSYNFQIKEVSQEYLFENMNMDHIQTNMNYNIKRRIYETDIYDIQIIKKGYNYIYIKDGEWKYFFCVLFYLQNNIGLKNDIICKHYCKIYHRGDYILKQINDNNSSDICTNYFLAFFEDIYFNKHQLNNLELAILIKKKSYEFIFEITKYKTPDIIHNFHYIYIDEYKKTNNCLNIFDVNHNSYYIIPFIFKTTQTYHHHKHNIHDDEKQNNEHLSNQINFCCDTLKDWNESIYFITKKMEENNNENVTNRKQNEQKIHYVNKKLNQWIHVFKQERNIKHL
Put plainly: proximity labelling; BioID with PfAnchor-BirA-HA as bait in parasites; streptavidin magnetic beads on RIPA lysates, LC-MS; two biological replicates; untagged parental parasites as control.
“PfDyn2 (Pf3D7_1037500), dynamin-like GTPase (from UniProt Q8IJ32)”: the binding result is “binds”.

The next assay deals with T2, PfAnchor (Pf3D7_0613600) with C-terminal spaghetti monster-V5 tag (Plasmodium falciparum) (UniProt C6KSX8).
T2 sequence: T1 sequence
Put plainly: affinity purification with mass spectrometry; anti-V5 magnetic beads incubated overnight at 4 °C with cleared RIPA lysates of PfAnchor iKD and PfAnchor^Mev iKD parasites; on-bead digestion, LC-MS; untagged parental 3D7-Cas9 as control; biological duplicates.
For “P. falciparum Minichromosome Maintenance-binding protein (PfMCMBP), endogenous”, the binding entry is on record as “no binding”. Same read-out and setting: next, PfActin1 (from UniProt Q8I4X0 1-376): “binds”; PfCinch, a basal complex protein: “binds”. “PfDyn2 (Pf3D7_1037500), dynamin-like GTPase (from UniProt Q8IJ32)”: the binding result is given as “binds”. As for “PfHsp70 (PF3D7_0818900) (from UniProt Q8IB24 1-677)”, the binding result is listed as “binds”. Same read-out and setting: to PfMCM5 belongs “no binding”.

Source of the values: article PMC12083691.
